In all, about 1,900 compounds were measured (“excess over highest single agent (ExcessHSA) synergy score, 6x6 matrix”: median about -83, lowest 2% from about -370 on). The list shows a part of the results.
system: NCI-H446; assay: excess over highest single agent (ExcessHSA) synergy score, 6x6 matrix; higher = less synergy (more negative = stronger synergy); details: 72 h; CellTiter-Glo viability

SMILES	excess over highest single agent
CC(C)[C@H]1C(=O)N[C@H](CO)Cc2c[nH]c3cccc(c23)N1C + Cc1sc2c(c1C)C(c1ccc(Cl)cc1)=N[C@@H](CC(=O)OC(C)(C)C)c1nnc(C)n1-2 [NCGC00250412-19]	-180
COc1ccc(S(=O)(=O)Nc2cccnc2Nc2ccc(O)cc2)cc1 + Cc1sc2c(c1C)C(c1ccc(Cl)cc1)=N[C@@H](CC(=O)OC(C)(C)C)c1nnc(C)n1-2 [NCGC00250412-19]	-161
O=C(Nc1cc2cc[nH]c2cn1)c1ccccc1 + Cc1sc2c(c1C)C(c1ccc(Cl)cc1)=N[C@@H](CC(=O)OC(C)(C)C)c1nnc(C)n1-2 [NCGC00250412-19]	-102
Cc1ccc(NC(=O)c2cccc(N(C)C)c2)cc1NC(=O)c1ccc(O)cc1 + Cc1sc2c(c1C)C(c1ccc(Cl)cc1)=N[C@@H](CC(=O)OC(C)(C)C)c1nnc(C)n1-2 [NCGC00250412-19]	-6.49
O=C1NCCc2[nH]c(-c3ccncc3)cc21 + Cc1sc2c(c1C)C(c1ccc(Cl)cc1)=N[C@@H](CC(=O)OC(C)(C)C)c1nnc(C)n1-2 [NCGC00250412-19]	14.8
CCNC(=O)CCC/C=C\C[C@@H]1[C@@H](/C=C/[C@@H](O)CCc2ccccc2)[C@H](O)C[C@@H]1O + Cc1sc2c(c1C)C(c1ccc(Cl)cc1)=N[C@@H](CC(=O)OC(C)(C)C)c1nnc(C)n1-2 [NCGC00250412-19]	17.4
C/C=C/C[C@@H](C)C(=O)[C@H]1C(=O)N[C@@H](C(C)C)C(=O)N(C)CC(=O)N(C)[C@@H](CC(C)C)C(=O)N[C@@H](C(C)C)C(=O)N(C)[C@@H](CC(C)C)C(=O)N[C@@H](C)C(=O)N[C@H](C)C(=O)N(C)[C@@H](CC(C)C)C(=O)N(C)[C@@H](CC(C)C)C(=O)N(C)[C@@H](C(C)C)C(=O)N1C + Cc1sc2c(c1C)C(c1ccc(Cl)cc1)=N[C@@H](CC(=O)OC(C)(C)C)c1nnc(C)n1-2 [NCGC00250412-19]	-166
CC1(C)O[C@@H]2C[C@H]3[C@@H]4CCC5=CC(=O)C=C[C@]5(C)[C@H]4[C@@H](O)C[C@]3(C)[C@]2(C(=O)CO)O1 + Cc1sc2c(c1C)C(c1ccc(Cl)cc1)=N[C@@H](CC(=O)OC(C)(C)C)c1nnc(C)n1-2 [NCGC00250412-19]	26.7
O=C(O)c1ccc2c(c1)nc(Nc1cccc(Cl)c1)c1ccncc12 + Cc1sc2c(c1C)C(c1ccc(Cl)cc1)=N[C@@H](CC(=O)OC(C)(C)C)c1nnc(C)n1-2 [NCGC00250412-19]	-118
c1cc2c(cc1[C@H]1OC[C@H]3[C@@H]1CO[C@@H]3c1ccc3c(c1)OCO3)OCO2 + Cc1sc2c(c1C)C(c1ccc(Cl)cc1)=N[C@@H](CC(=O)OC(C)(C)C)c1nnc(C)n1-2 [NCGC00250412-19]	-8.93
COc1cc(Cl)cn2c(-c3cccc(NC4CNC4)n3)cnc12 + Cc1sc2c(c1C)C(c1ccc(Cl)cc1)=N[C@@H](CC(=O)OC(C)(C)C)c1nnc(C)n1-2 [NCGC00250412-19]	-67.2
C[C@]1(c2nc3c(C(N)=O)cccc3[nH]2)CCCN1 + Cc1sc2c(c1C)C(c1ccc(Cl)cc1)=N[C@@H](CC(=O)OC(C)(C)C)c1nnc(C)n1-2 [NCGC00250412-19]	-166
CC(=O)N[C@@H](CS)C(=O)O + Cc1sc2c(c1C)C(c1ccc(Cl)cc1)=N[C@@H](CC(=O)OC(C)(C)C)c1nnc(C)n1-2 [NCGC00250412-19]	1.49
CCCn1c(=O)c2nc(C34CC5CC(CC3C5)C4)[nH]c2n(CCC)c1=O + Cc1sc2c(c1C)C(c1ccc(Cl)cc1)=N[C@@H](CC(=O)OC(C)(C)C)c1nnc(C)n1-2 [NCGC00250412-19]	-113
O=C(O)Cc1cccc(OCCCN(Cc2cccc(C(F)(F)F)c2Cl)CC(c2ccccc2)c2ccccc2)c1 + Cc1sc2c(c1C)C(c1ccc(Cl)cc1)=N[C@@H](CC(=O)OC(C)(C)C)c1nnc(C)n1-2 [NCGC00250412-19]	-42.3
O=c1cc(-c2ccccc2)oc2cc(O)c(O)c(O)c12 + Cc1sc2c(c1C)C(c1ccc(Cl)cc1)=N[C@@H](CC(=O)OC(C)(C)C)c1nnc(C)n1-2 [NCGC00250412-19]	-87.8
COc1cc(C2Oc3cc([C@H]4Oc5cc(O)cc(O)c5C(=O)[C@@H]4O)ccc3OC2CO)ccc1O (stereo partly drawn) + Cc1sc2c(c1C)C(c1ccc(Cl)cc1)=N[C@@H](CC(=O)OC(C)(C)C)c1nnc(C)n1-2 [NCGC00250412-19]	-159
CCNC(=O)Nc1ccc2ncc(Nc3ccc(C)cc3)nc2n1 + Cc1sc2c(c1C)C(c1ccc(Cl)cc1)=N[C@@H](CC(=O)OC(C)(C)C)c1nnc(C)n1-2 [NCGC00250412-19]	105
CC[C@H](C)C(=O)O[C@H]1C[C@@H](C)C=C2C=C[C@H](C)[C@H](CC[C@@H]3C[C@@H](O)CC(=O)O3)[C@H]21 + Cc1sc2c(c1C)C(c1ccc(Cl)cc1)=N[C@@H](CC(=O)OC(C)(C)C)c1nnc(C)n1-2 [NCGC00250412-19]	-89.4

Exported with bars between the fields: part of the list above
SMILES | excess over highest single agent
CC(C)[C@H]1C(=O)N[C@H](CO)Cc2c[nH]c3cccc(c23)N1C + Cc1sc2c(c1C)C(c1ccc(Cl)cc1)=N[C@@H](CC(=O)OC(C)(C)C)c1nnc(C)n1-2 [NCGC00250412-19] | -180
Cc1ccc(NC(=O)c2cccc(N(C)C)c2)cc1NC(=O)c1ccc(O)cc1 + Cc1sc2c(c1C)C(c1ccc(Cl)cc1)=N[C@@H](CC(=O)OC(C)(C)C)c1nnc(C)n1-2 [NCGC00250412-19] | -6.49
c1cc2c(cc1[C@H]1OC[C@H]3[C@@H]1CO[C@@H]3c1ccc3c(c1)OCO3)OCO2 + Cc1sc2c(c1C)C(c1ccc(Cl)cc1)=N[C@@H](CC(=O)OC(C)(C)C)c1nnc(C)n1-2 [NCGC00250412-19] | -8.93
CC(=O)N[C@@H](CS)C(=O)O + Cc1sc2c(c1C)C(c1ccc(Cl)cc1)=N[C@@H](CC(=O)OC(C)(C)C)c1nnc(C)n1-2 [NCGC00250412-19] | 1.49
O=C(O)Cc1cccc(OCCCN(Cc2cccc(C(F)(F)F)c2Cl)CC(c2ccccc2)c2ccccc2)c1 + Cc1sc2c(c1C)C(c1ccc(Cl)cc1)=N[C@@H](CC(=O)OC(C)(C)C)c1nnc(C)n1-2 [NCGC00250412-19] | -42.3
COc1cc(C2Oc3cc([C@H]4Oc5cc(O)cc(O)c5C(=O)[C@@H]4O)ccc3OC2CO)ccc1O (stereo partly drawn) + Cc1sc2c(c1C)C(c1ccc(Cl)cc1)=N[C@@H](CC(=O)OC(C)(C)C)c1nnc(C)n1-2 [NCGC00250412-19] | -159
CCNC(=O)Nc1ccc2ncc(Nc3ccc(C)cc3)nc2n1 + Cc1sc2c(c1C)C(c1ccc(Cl)cc1)=N[C@@H](CC(=O)OC(C)(C)C)c1nnc(C)n1-2 [NCGC00250412-19] | 105

Later entries

SMILES	excess over highest single agent
Clc1ccc(C(Cn2ccnc2)OCc2ccc(Sc3ccccc3)cc2)c(Cl)c1 (stereo not drawn) + Cc1sc2c(c1C)C(c1ccc(Cl)cc1)=N[C@@H](CC(=O)OC(C)(C)C)c1nnc(C)n1-2 [NCGC00250412-19]	-35.3
COc1cccc2cc(-c3nc([C@H]4CC[C@H](C(=O)O)CC4)n4ncnc(N)c34)[nH]c12 + Cc1sc2c(c1C)C(c1ccc(Cl)cc1)=N[C@@H](CC(=O)OC(C)(C)C)c1nnc(C)n1-2 [NCGC00250412-19]	-255
O=C1CCC[C@@H]2[C@H]3CCC[N+]4([O-])CCC[C@@H](CN12)[C@@H]34 (stereo partly drawn) + Cc1sc2c(c1C)C(c1ccc(Cl)cc1)=N[C@@H](CC(=O)OC(C)(C)C)c1nnc(C)n1-2 [NCGC00250412-19]	-73.2
CC(C)n1c(/C=C/C(O)CC(O)CC(=O)O)c(-c2ccc(F)cc2)c2ccccc21 (stereo not drawn) + Cc1sc2c(c1C)C(c1ccc(Cl)cc1)=N[C@@H](CC(=O)OC(C)(C)C)c1nnc(C)n1-2 [NCGC00250412-19]	-43.4
O=c1ccn([C@@H]2O[C@H](CO)[C@@H](O)[C@H]2O)c(=O)[nH]1 + Cc1sc2c(c1C)C(c1ccc(Cl)cc1)=N[C@@H](CC(=O)OC(C)(C)C)c1nnc(C)n1-2 [NCGC00250412-19]	-93.4
CC(=O)NC(C)c1ccc(Oc2ccc(OC(C)C)cc2)cc1 (stereo not drawn) + Cc1sc2c(c1C)C(c1ccc(Cl)cc1)=N[C@@H](CC(=O)OC(C)(C)C)c1nnc(C)n1-2 [NCGC00250412-19]	-47.6
COc1ccc2c(c1)CC[C@H](CN(C)CC(=O)O)[C@@H]2c1ccccc1 + Cc1sc2c(c1C)C(c1ccc(Cl)cc1)=N[C@@H](CC(=O)OC(C)(C)C)c1nnc(C)n1-2 [NCGC00250412-19]	-220
CCCCNc1cc(C(=O)O)cc(S(N)(=O)=O)c1Oc1ccccc1 + Cc1sc2c(c1C)C(c1ccc(Cl)cc1)=N[C@@H](CC(=O)OC(C)(C)C)c1nnc(C)n1-2 [NCGC00250412-19]	-60.7
COC(=O)N[C@H](C(=O)N[C@@H](Cc1ccccc1)[C@@H](O)CN(Cc1ccc(-c2ccccn2)cc1)NC(=O)[C@@H](NC(=O)OC)C(C)(C)C)C(C)(C)C + Cc1sc2c(c1C)C(c1ccc(Cl)cc1)=N[C@@H](CC(=O)OC(C)(C)C)c1nnc(C)n1-2 [NCGC00250412-19]	-165
CNC[C@H](O)[C@@H](O)[C@H](O)[C@H](O)CO + Cc1sc2c(c1C)C(c1ccc(Cl)cc1)=N[C@@H](CC(=O)OC(C)(C)C)c1nnc(C)n1-2 [NCGC00250412-19]	-244
NCCCC(O)(P(=O)(O)O)P(=O)(O)O + Cc1sc2c(c1C)C(c1ccc(Cl)cc1)=N[C@@H](CC(=O)OC(C)(C)C)c1nnc(C)n1-2 [NCGC00250412-19]	-12.1
COC(=O)Nc1ccc(-c2nc(N3CCOCC3)c3cnn(C4CCN(C(=O)OC)CC4)c3n2)cc1 + Cc1sc2c(c1C)C(c1ccc(Cl)cc1)=N[C@@H](CC(=O)OC(C)(C)C)c1nnc(C)n1-2 [NCGC00250412-19]	-352
N[C@@H](Cc1ccc(N(CCCl)CCCl)cc1)C(=O)O + Cc1sc2c(c1C)C(c1ccc(Cl)cc1)=N[C@@H](CC(=O)OC(C)(C)C)c1nnc(C)n1-2 [NCGC00250412-19]	-150
CCC[S+]([O-])c1ccc2[nH]c(NC(=O)OC)nc2c1 (stereo not drawn) + Cc1sc2c(c1C)C(c1ccc(Cl)cc1)=N[C@@H](CC(=O)OC(C)(C)C)c1nnc(C)n1-2 [NCGC00250412-19]	-145
NC(=O)OCC(COC(N)=O)c1ccccc1 + Cc1sc2c(c1C)C(c1ccc(Cl)cc1)=N[C@@H](CC(=O)OC(C)(C)C)c1nnc(C)n1-2 [NCGC00250412-19]	-44.4
CN[C@H]1CCc2cc(OC)c(OC)c(OC)c2-c2ccc(OC)c(=O)cc21 + Cc1sc2c(c1C)C(c1ccc(Cl)cc1)=N[C@@H](CC(=O)OC(C)(C)C)c1nnc(C)n1-2 [NCGC00250412-19]	-167
O=C(CC12CC3CC(CC(C3)C1)C2)Nc1cccc2nc(NCCNCCO)ccc12 + Cc1sc2c(c1C)C(c1ccc(Cl)cc1)=N[C@@H](CC(=O)OC(C)(C)C)c1nnc(C)n1-2 [NCGC00250412-19]	-112
C[C@H](Cc1cc2c(c(C(N)=O)c1)N(CCCO)CC2)NCCOc1ccccc1OCC(F)(F)F + Cc1sc2c(c1C)C(c1ccc(Cl)cc1)=N[C@@H](CC(=O)OC(C)(C)C)c1nnc(C)n1-2 [NCGC00250412-19]	50.9
CN(C)CCOc1ccc(-c2nc(-c3ccncc3)c(-c3ccc4c(c3)CC/C4=N\O)[nH]2)cc1 + Cc1sc2c(c1C)C(c1ccc(Cl)cc1)=N[C@@H](CC(=O)OC(C)(C)C)c1nnc(C)n1-2 [NCGC00250412-19]	24.2

Source: the supplement of paper PMC10077471
